Results are given in words; binding and its absence hold for the method and conditions named. Some entries that bind do so weakly or less than the wild type.

The experiment addresses T1, GrxD (E. coli K-12 BW25113 (endogenous in the lysate)) (UniProt P0AC69).
T1 sequence: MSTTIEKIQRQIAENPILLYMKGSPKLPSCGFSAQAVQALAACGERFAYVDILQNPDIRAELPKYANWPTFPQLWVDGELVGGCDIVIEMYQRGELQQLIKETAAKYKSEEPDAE
Description: SEC.

B1: BolA (protein, UniProt P0ABE2 1-105)
chain: MMIRERIEEKLRAAFQPVFLEVVDESYRHNVPAGSESHFKVVLVSDRFTGERFLNRHRMIYSTLAEELSTTVHALALHTYTIKEWEGLQDTVFASPPCRGAGSIA
Regarding B1, the binding result is “binds”.
